Laboratory results taken from US20130158024A1, “TRICYCLIC NECROSTATIN COMPOUNDS” (priority 2005, published 2013).
For part of these data: For at least one compound, name, drawing or mass did not settle the structure. Some of these results come from one statement about several compounds together.

Key:
[1] = system: FADD-deficient Jurkat T cells treated with TNF-α; experiment: Inhibition of necroptosis (CICD) in FADD-deficient Jurkat T cells treated with TNF-α, ATP-based viability; format: cell-based, human; details: amine on the 5-position of the tricyclic ring
[2] = system: L929 cells; experiment: TNFα-induced CICD of L929 cells, ATP assay; format: cell-based, mouse; details: no caspase inhibitor
Method: Cell viability was determined using ATP-Lite-M ATP assay (Packard). The values represent viability relative to the control lacking TNFα, which was set as 100% viability.
Cell viability in this and subsequent panels was determined by ATP-based viability assay. Numbers represent percentages of the live cells normalized to those in the untreated control wells. Throughout, error bars represent standard deviations. […] Numbers represent viability normalized to that of the corresponding compound-treated cells in the absence of FasL. […] Numbers represent viability normalized to that of the corresponding compound-treated cells in the absence of dimerizer. […] Cells were treated with TNFα (E, F, H), zVAD.fmk (E, F), or CHX (F) for 16 (F) or 24 (E, H) hours. Numbers represent viability normalized to that of the compound-treated cells in the absence of TNFα.

SMILES | erosion of activity [1] | protection of L929 cells from TNFα-induced CICD, in words [2]
COc1ccc([C@H]2[C@H]3C[C@H](N)c4ccc(OC)cc4C3=NN2C(C)=O)cc1 (relative stereo) [Compound 145, (3R,3aR,5S)-rel-2-acetyl-5-amino-3,3a,4,5-tetrahydro-3-(4-methoxyphenyl)-8-methoxy-2H-benz[g]indazole] | > 10 fold | 
COC1=C2C[C@@H](C)C[C@H](OC)[C@H](O)[C@@H](C)/C=C(\C)[C@H](OC(N)=O)[C@@H](OC)/C=C\C=C(/C)C(=O)NC(=CC1=O)C2=O [geldanamycin, reference compound] |  | neither these compounds nor geldanamycin work in L929 cells
COc1ccc([C@H]2[C@H]3C[C@H](N(C)C)c4ccc(OC)cc4C3=NN2C(C)=O)cc1 (relative stereo) [Compound 146, (3R,3aR,5S)-rel-2-acetyl-5-(N,N-dimethylamino)-3,3a,4,5-tetrahydro-3-(4-methoxyphenyl)-8-methoxy-2H-benz[g]indazole] | > 10 fold | 
